No dose or concentration is given here for some results.
Test system: patients suffering from brain injury (brain trauma) with increased intracranial pressure
Experiment: Treatment of increased intracranial pressure caused by brain trauma
Format: in vivo, human
Experimental: For this purpose, the composition of the invention or the mannitol was administered (infused) to a group of each twelve patients and the ICP was measured every 15 minutes.
The results of this study, in which 12 patients were either treated with mannitol or the hypertonic lactate solution of the invention, are shown in FIGS. 1 to 4 as well as in Tables 2 to 5.

OC[C@@H](O)[C@@H](O)[C@H](O)[C@H](O)CO [mannitol] was tested, and the “hematocrite and hemoglobin level relative to original values” (after infusion (FIG. 3)) was 97% and the “Osmotic Pressure after treatment” value (after treatment) was 302 ± 2.5 mosm/kg.

Reference: patent US20080125488A1, “Lactate Containing Pharmaceutical Composition and Uses Thereof” (priority 2003, published 2008)
